For 75 compounds, log results are on record in the supplement of paper PMC7024190.

The structures appear in SMILES notation. Structures can show the parent of a compound that is named as a salt. Some of the results follow. Repeats in this data set agree poorly, so a single value says little.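 The cells were human embryonic kidney cells carrying a Renilla luciferase gene, driven by the HSV-TK promoter, on a plasmid put in briefly by transfection. This is the first-round screen of about ten thousand compounds, looking for ones that raise reporter output.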

In this assay the test system is HEK 293FT. In words: log relative Renilla luciferase luminescence (reporter expression vs reference, reference not stated) (log (base not stated)); higher = higher recombinant reporter expression. The following applies: 10 µM; time after transfection 48 h.
As to `CN(C)c1ccc(C(=C2C=CC(=[N+](C)C)C=C2)c2ccc(N(C)C)cc2)cc1` [gentian violet], the log was -0.675.
`COc1ccc(CC2c3cc(OC)c(OC)cc3CC[N+]2(C)CCC(=O)OCCCCCOC(=O)CC[N+]2(C)CCc3cc(OC)c(OC)cc3C2Cc2ccc(OC)c(OC)c2)cc1OC` (stereo not given) [atracurium besylate]: the log is 0.11.
Regarding `CC(=O)[C@H]1CC[C@H]2[C@@H]3CC=C4C[C@@H](O)CC[C@]4(C)[C@H]3CC[C@]12C` [pregnenolone], the log amounted to 0.13.
`Cc1nc(Nc2ncc(C(=O)Nc3c(C)cccc3Cl)s2)cc(N2CCN(CCO)CC2)n1` [dasatinib]: the log is -0.343.
Consider `CCN(CCO)CCCC(C)Nc1ccnc2cc(Cl)ccc12` (stereo not given) [hydroxychloroquine sulfate], for which the log turned out to be 0.0999.
Take `CON` [methoxyamine hydrochloride]: the log was -0.134.
Turning to `CC1(C)[C@@H](O)CC[C@]2(C)[C@H]3C(=O)C=C4[C@H]5C[C@@](C)(C(=O)O)CC[C@]5(C)CC[C@@]4(C)[C@]3(C)CC[C@@H]12` [18alpha-glycyrrhetinic acid], the log was 0.0732.
For the compound `CO/N=C1\C[C@]2(C[C@@H]3C[C@@H](C/C=C(\C)C[C@@H](C)/C=C/C=C4\CO[C@@H]5[C@H](O)C(C)=C[C@@H](C(=O)O3)[C@]45O)O2)O[C@H](/C(C)=C/C(C)C)[C@H]1C` [moxidectin], the log is -0.097.
Regarding `CCCCN1CCCCC1C(=O)Nc1c(C)cccc1C` (stereo not given) [bupivacaine hydrochloride], the log was found to be 0.172.
The figure for `CCOC(=O)NNc1nncc2ccccc12` [todralazine hydrochloride] is 0.0613.
Regarding `CC(=O)c1c(O)cc(O)cc1O` [phloracetophenone], the log worked out at 0.234.
For `CC(=O)O[C@@H]1CC2C(C)(CC[C@H](O)C2(C)C)C2CC[C@]3(C)C(=CC(=O)O[C@H]3c3ccoc3)C21C` (stereo partly drawn) [3beta-hydroxydeoxodihydrodeoxygedunin], the log stood at 0.0943.
The figure for `O=c1c(-c2cc(O)c(O)c(O)c2)coc2cc(O)c(O)c(O)c12` [irigenol] is 0.0913.
As to `CC12CCCC(O)(C1)C1CC(C)(C)C1CC2` (stereo not drawn) [beta-caryophyllene alcohol], the log was determined as 0.102.
With `CC(C)(C)c1ccc(C(O)CCCN2CCC(C(O)(c3ccccc3)c3ccccc3)CC2)cc1` (stereo not given) [terfenadine] the figure was 0.0676; with `CC(COc1ccccc1)NC(C)C(O)c1ccc(O)cc1` (stereo not given) [isoxsuprine hydrochloride], 0.0442.
With `Cc1cc(=O)oc2c(O)c(O)ccc12` [4-methyldaphnetin] the figure was -0.252.
Take `C#C[C@]1(O)CC[C@H]2[C@@H]3CCC4=C(CCC(=O)C4)[C@H]3CC[C@@]21C` [norethynodrel]: the log was -0.246.
As to `COc1cc(OC)c(-c2c(OC)cc(OC)cc2OC)c(OC)c1` [difucol hexamethyl ether], the log amounted to 0.201.
As to `CC(C)(C)NCC(O)c1cc(O)cc(O)c1` (stereo not given) [terbutaline hemisulfate], the log is -0.029.
For the compound `COc1ccc2c(c1)O[C@@H]1COc3cc(OC)c(OC)cc3[C@@H]1C2=O` [mundoserone], the log is -0.798.
With `CCOC(=O)[N-]c1c[n+](N2CCOCC2)no1` [molsidomine] the figure was -0.0943.
As to `CC[N+](CC)(CC)CCOc1cccc(OCC[N+](CC)(CC)CC)c1OCC[N+](CC)(CC)CC` [gallamine triethiodide], the log was -0.0304.
In the case of `CN[C@@H]1[C@H](O[C@H]2[C@H](O[C@H]3[C@H](O)[C@@H](O)[C@H](NC(=N)N)[C@@H](O)[C@@H]3NC(=N)N)O[C@@H](C)[C@]2(O)CO)O[C@@H](CO)[C@H](O)[C@H]1O` [dihydrostreptomycin sulfate], the log is -0.076.
Take `NCc1ccc(S(N)(=O)=O)cc1` [mafenide hydrochloride]: the log is -0.269.
`COc1cc2oc3cc(OC)c(OC)c(CC=C(C)C)c3c(=O)c2c(OC)c1CC=C(C)C` [mangostin trimethyl ether]: the log was found to be 0.345.
In the case of `CCc1oc2ccccc2c1C(=O)c1cc(Br)c(O)c(Br)c1` [benzbromarone], the log is -0.101.
Turning to `CC/C(=C(\c1ccccc1)c1ccc(OCCN(C)C)cc1)c1ccccc1` [tamoxifen citrate], the log was found to be 0.102.
In the case of `CC(=O)Nc1ccc(C(=O)O)cc1` [acedoben], the log was -0.389.
`O=C(O)c1cccnc1C(=O)O` [quinolinic acid]: the log is -0.00978.
The figure for `O=C(O)c1ccccc1` [benzoic acid] is 0.0182.
`CCOc1ccc(NC(C)=O)cc1` [phenacetin]: the log is -0.337.
With `CN1CCC[C@@H]1CCO[C@](C)(c1ccccc1)c1ccc(Cl)cc1` [clemastine fumarate] the figure was -0.136.
As to `COc1cc2ncnc(Nc3ccc(F)c(Cl)c3)c2cc1OCCCN1CCOCC1` [gefitinib], the log is -0.0491.
`COc1ccc(C(=O)c2ccccc2O)c(O)c1` [dioxybenzone]: the log is -0.0638.
On to `CC(C)(C)NC[C@H](O)COc1ccccc1C1CCCC1` [penbutolol sulfate], for which the log was -0.0658.
As for `Nc1nc2[nH]cc(CCc3ccc(C(=O)N[C@@H](CCC(=O)O)C(=O)O)cc3)c2c(=O)[nH]1` [pemetrexed], the log was 0.00259.
As to `COCCc1ccc(OCC(O)CNC(C)C)cc1` (stereo not given) [metoprolol tartrate], the log is -0.0748.
With `OCc1ccccn1` [piconol] the figure was 0.0746; with `COc1ccc(CN2CCN(C(c3ccc(F)cc3)c3ccc(F)cc3)CC2)c(OC)c1OC` [lomerizine hydrochloride], 0.0766.
For `COc1cc(OC)c2c(=O)c(-c3ccccc3)c(C)oc2c1OC` [2-methyl-5,7,8-trimethoxyisoflavone], the log was -0.0277.
`CC(C)Cc1ccc(C(C)C(=O)O)cc1` (stereo not given) [ibuprofen]: the log came to 0.129.
Turning to `COC1=CC(=O)C=C(OC)C1=O` [2,6-dimethoxyquinone], the log is -1.57.
As to `Cc1cnc(C(=O)O)c[n+]1[O-]` [acipimox], the log was found to be 0.0907.
Consider `CC(=O)Nc1cccc(O)c1` [metacetamol], for which the log is -0.141.
For `O=c1c(O)c(-c2ccc(O)c(O)c2)oc2cc(O)cc(O)c12` [quercetin], the log came to 0.0364.
With `O=C(O)C1(C(=O)O)CCC1.[NH2-].[NH2-].[Pt+2]` [carboplatin] the figure was 0.0455.
As to `CC1=C(C/C=C(\C)CCC[C@H](C)CCC[C@H](C)CCCC(C)C)C(=O)c2ccccc2C1=O` [phytonadione], the log is -0.073.
For `Cc1ncc(COP(=O)([O-])[O-])c(CN(CCN(CC(=O)O)Cc2c(COP(=O)([O-])O)cnc(C)c2O)CC(=O)O)c1O.[Mn].[Na+].[Na+].[Na+]` [mangafodipir trisodium], the log was determined as 0.0773.
In the case of `CN1CCOC(c2ccccc2)c2ccccc2C1` (stereo not given) [nefopam], the log was -0.0467.
The figure for `N=C(N)NCCCCN` [agmatine sulfate] is 0.0271.
In the case of `CN1CCC(=C2c3ccccc3CCc3sccc32)CC1` [pizotyline malate], the log was determined as 0.0252.
As to `CCN(CC)CCOc1ccc(C(=C(Cl)c2ccccc2)c2ccccc2)cc1` [clomiphene citrate], the log was -0.0317.
With `CC1(C)CC[C@]2(C(=O)O)CC[C@]3(C)C(=CCC4[C@@]5(C)CC[C@@H](O)C(C)(C)C5CC[C@]43C)C2C1` (stereo not given in full) [oleanoic acid] the figure was 0.18; with `CCCCNc1ccc(C(=O)OCCN(C)C)cc1` [tetracaine hydrochloride], -0.00278.
In the case of `CCCCCOC(=O)Nc1nc(=O)n([C@@H]2O[C@H](C)[C@@H](O)[C@H]2O)cc1F` [capecitabine], the log was -0.0557.
Consider `CCC1NC(=O)c2cc(S(N)(=O)=O)c(Cl)cc2N1` (stereo not given) [quinethazone], for which the log amounted to 0.0799.
Regarding `CC(O)(P(=O)(O)O)P(=O)(O)O` [etidronate disodium], the log worked out at 0.0813.
As to `Cc1cnc(C(=O)NCCc2ccc(S(=O)(=O)NC(=O)NC3CCCCC3)cc2)cn1` [glipizide], the log worked out at 0.148.
In the case of `O=C(O)COCCN1CCN([C@H](c2ccccc2)c2ccc(Cl)cc2)CC1` [levocetirizine dihydrochloride], the log is -0.165.
Take `CCc1ccc2c(O)c3c(cc2c1C(=O)OC)C(=O)c1c(O)ccc(O)c1C3=O` [bisanhydrorutilantinone]: the log was 0.0715.
In the case of `O=S(=O)(O)c1cc(I)c(O)c2ncccc12` [chiniofon], the log was -0.129.
Turning to `CC(=O)O[C@H]1C[C@@H](OC(C)=O)C(C)(C)[C@@H]2C[C@@H](OC(C)=O)[C@@]3(C)C4=CC(=O)O[C@@H](c5ccoc5)[C@]4(C)CC[C@@H]3[C@@]12C` [deoxykhivorin], the log turned out to be 0.168.
With `O=C1[C@H](CC[C@H](O)c2ccc(F)cc2)[C@@H](c2ccc(O)cc2)N1c1ccc(F)cc1` [ezetimibe] the figure was -0.00699; with `COC(=O)C1=C(C)NC(C)=C(C(=O)OCCN(C)Cc2ccccc2)C1c1cccc([N+](=O)[O-])c1` (stereo not given) [nicardipine hydrochloride], -0.0129.
In the case of `CC(C)=CCc1c2c(c3occ(-c4ccc(O)cc4)c(=O)c3c1O)C=CC(C)(C)O2` [osajin], the log was -0.282.
With `CN1CCN(c2c(F)cc3c(=O)c(C(=O)O)cn4c3c2SCC4)CC1` [rufloxacin hydrochloride], the log was 0.0757.
Turning to `COC(=O)C1=C(C)NC(C)=C(C(=O)OCC(C)C)C1c1ccccc1[N+](=O)[O-]` (stereo not given) [nisoldipine], the log is 0.153.
As to `O=C1CCc2ccc(OCCCCN3CCN(c4cccc(Cl)c4Cl)CC3)cc2N1` [aripiprazole], the log was -0.0569.
As to `CN(C)CCOC(c1ccc(Cl)cc1)c1ccccn1` (stereo not given) [carbinoxamine maleate], the log is -0.187.
On to `NC(=O)NC1NC(=O)NC1=O` (stereo not given) [allantoin], for which the log is -0.177.
For `C[C@@H]1CC[C@@]23CCC4(C)[C@@](C=CC5[C@@]6(C)CCC(=O)C(C)(C)C6CC[C@]54C)(OC2=O)C3[C@H]1C` (stereo not given in full) [3-oxoursan (28-13)olide], the log is -0.0232.
With `COc1c2ccoc2cc2oc(=O)ccc12` [bergapten], the log stood at 0.00202.
On to `O=C1C(O)=C([C@H]2CC[C@H](c3ccc(Cl)cc3)CC2)C(=O)c2ccccc21` [atovaquone], for which the log is -0.153.
Take `Cc1ccccc1C(OCCN(C)C)c1ccccc1` (stereo not given) [orphenadrine citrate]: the log is -0.107.
